This is one part of the list. Most entries show no effect beyond the scatter of the controls.
Compound: CN[C@@H]1C[C@H]2O[C@@](C)([C@@H]1OC)n1c3ccccc3c3c4c(c5c6ccccc6n2c5c31)C(=O)NC4 [staurosporine]
Test: log2 fold change of pooled soluble protein (PISA), ligand vs vehicle (log2 ratio); higher = more thermally stabilized
Conditions: ligand concentration: 20 uM; assay format: PISA pool 52.9/55.5/58.6 C

Amino acid sequences for entries named in this document (tags omitted). A change or cut given only in a name is not applied to a line headed by its entry.
UniProt Q921H9: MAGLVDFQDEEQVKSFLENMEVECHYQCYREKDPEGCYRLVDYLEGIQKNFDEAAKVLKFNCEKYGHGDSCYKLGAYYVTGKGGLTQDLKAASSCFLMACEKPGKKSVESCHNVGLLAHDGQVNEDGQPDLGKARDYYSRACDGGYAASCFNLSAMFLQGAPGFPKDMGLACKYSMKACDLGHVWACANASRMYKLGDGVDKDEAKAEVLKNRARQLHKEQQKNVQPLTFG
UniProt Q91X44: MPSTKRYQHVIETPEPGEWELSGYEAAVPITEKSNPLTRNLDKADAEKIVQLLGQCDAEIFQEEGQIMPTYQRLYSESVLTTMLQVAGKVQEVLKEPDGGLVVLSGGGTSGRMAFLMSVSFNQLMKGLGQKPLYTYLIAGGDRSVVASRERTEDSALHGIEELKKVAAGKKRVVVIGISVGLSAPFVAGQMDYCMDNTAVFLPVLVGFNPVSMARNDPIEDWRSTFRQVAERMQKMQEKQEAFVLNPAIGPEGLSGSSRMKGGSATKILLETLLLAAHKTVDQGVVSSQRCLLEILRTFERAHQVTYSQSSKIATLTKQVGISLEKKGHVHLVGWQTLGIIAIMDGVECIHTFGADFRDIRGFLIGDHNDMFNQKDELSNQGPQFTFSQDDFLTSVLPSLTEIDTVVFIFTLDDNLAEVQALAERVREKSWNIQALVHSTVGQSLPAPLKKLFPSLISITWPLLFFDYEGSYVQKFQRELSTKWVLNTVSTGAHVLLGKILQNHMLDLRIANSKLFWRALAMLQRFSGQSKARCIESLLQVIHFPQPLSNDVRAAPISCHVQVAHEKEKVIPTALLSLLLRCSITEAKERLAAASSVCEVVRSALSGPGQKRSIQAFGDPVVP
UniProt Q91VR2: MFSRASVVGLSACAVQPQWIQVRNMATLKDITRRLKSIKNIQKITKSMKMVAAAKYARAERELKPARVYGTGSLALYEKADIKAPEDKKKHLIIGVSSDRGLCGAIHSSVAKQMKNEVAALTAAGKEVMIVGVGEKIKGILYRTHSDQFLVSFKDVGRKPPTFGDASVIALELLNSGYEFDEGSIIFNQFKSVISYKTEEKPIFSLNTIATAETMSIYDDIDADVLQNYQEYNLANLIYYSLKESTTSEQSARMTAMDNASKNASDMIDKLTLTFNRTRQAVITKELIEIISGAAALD
UniProt Q91ZV0: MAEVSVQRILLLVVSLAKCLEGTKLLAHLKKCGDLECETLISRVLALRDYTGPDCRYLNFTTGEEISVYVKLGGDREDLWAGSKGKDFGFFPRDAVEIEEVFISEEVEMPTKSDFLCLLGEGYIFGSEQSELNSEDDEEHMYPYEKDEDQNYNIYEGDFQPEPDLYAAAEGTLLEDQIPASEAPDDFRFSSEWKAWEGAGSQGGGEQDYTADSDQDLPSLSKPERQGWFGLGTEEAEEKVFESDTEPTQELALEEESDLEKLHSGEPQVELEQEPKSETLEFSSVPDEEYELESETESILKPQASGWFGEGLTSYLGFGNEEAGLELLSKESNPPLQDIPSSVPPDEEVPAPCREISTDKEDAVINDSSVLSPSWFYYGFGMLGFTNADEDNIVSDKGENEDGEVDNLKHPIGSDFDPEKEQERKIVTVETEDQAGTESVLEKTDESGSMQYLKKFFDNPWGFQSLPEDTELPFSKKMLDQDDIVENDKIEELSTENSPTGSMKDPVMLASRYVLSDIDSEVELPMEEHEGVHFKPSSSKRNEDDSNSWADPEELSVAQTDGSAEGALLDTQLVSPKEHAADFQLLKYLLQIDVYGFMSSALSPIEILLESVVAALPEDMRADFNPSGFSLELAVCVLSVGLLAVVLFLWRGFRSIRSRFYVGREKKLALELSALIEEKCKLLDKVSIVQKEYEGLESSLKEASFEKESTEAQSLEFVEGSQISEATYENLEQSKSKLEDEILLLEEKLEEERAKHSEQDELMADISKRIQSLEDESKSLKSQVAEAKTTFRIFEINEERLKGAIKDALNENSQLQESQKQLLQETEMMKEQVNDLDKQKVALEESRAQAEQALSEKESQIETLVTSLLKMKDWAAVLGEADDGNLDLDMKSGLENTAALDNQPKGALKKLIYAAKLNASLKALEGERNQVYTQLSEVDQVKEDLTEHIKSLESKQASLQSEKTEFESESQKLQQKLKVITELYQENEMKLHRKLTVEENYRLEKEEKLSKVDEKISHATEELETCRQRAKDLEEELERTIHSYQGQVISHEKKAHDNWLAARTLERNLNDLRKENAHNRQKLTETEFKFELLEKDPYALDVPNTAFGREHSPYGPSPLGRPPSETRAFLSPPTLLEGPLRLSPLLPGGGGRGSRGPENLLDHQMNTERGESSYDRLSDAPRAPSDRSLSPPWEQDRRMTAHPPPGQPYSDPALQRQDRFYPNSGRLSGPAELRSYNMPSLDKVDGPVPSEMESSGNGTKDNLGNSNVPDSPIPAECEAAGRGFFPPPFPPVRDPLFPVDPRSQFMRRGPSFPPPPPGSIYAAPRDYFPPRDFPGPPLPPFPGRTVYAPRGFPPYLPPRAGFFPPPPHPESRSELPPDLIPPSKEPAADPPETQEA
UniProt Q91WM6: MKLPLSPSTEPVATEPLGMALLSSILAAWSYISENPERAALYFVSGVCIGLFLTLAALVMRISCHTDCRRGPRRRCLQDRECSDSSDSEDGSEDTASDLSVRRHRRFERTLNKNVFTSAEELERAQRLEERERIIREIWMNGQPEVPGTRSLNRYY
UniProt Q8VCN6: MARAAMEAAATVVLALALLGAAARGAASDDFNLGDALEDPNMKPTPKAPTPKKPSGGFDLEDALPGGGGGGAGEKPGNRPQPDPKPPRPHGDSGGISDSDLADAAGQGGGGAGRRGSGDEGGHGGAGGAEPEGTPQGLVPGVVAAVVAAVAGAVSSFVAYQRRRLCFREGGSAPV
UniProt Q8VI75: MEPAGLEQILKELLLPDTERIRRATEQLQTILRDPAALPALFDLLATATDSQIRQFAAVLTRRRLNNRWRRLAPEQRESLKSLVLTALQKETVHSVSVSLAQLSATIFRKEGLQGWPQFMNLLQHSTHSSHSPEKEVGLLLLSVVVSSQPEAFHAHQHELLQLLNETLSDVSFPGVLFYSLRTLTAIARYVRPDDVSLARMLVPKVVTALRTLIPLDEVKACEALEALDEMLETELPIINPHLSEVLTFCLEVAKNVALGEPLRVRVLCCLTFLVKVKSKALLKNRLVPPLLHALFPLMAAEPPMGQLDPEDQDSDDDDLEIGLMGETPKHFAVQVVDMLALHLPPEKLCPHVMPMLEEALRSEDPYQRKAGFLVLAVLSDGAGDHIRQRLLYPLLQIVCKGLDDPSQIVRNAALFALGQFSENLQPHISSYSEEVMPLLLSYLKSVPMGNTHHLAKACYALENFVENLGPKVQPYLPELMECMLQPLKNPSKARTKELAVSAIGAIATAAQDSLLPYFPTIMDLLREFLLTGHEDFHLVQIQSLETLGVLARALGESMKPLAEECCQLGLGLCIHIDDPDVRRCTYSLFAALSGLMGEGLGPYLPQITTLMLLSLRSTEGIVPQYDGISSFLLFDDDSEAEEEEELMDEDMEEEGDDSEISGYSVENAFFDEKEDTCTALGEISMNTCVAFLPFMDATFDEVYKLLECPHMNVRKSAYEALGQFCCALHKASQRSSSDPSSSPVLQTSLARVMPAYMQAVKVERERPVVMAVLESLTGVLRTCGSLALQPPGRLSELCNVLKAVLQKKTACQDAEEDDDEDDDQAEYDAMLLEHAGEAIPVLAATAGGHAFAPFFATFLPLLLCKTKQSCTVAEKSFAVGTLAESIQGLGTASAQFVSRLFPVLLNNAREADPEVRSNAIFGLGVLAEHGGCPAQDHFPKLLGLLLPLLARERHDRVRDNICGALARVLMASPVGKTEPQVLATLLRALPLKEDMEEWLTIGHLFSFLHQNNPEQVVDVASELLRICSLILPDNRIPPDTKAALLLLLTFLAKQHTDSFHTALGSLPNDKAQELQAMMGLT
UniProt Q91YN5: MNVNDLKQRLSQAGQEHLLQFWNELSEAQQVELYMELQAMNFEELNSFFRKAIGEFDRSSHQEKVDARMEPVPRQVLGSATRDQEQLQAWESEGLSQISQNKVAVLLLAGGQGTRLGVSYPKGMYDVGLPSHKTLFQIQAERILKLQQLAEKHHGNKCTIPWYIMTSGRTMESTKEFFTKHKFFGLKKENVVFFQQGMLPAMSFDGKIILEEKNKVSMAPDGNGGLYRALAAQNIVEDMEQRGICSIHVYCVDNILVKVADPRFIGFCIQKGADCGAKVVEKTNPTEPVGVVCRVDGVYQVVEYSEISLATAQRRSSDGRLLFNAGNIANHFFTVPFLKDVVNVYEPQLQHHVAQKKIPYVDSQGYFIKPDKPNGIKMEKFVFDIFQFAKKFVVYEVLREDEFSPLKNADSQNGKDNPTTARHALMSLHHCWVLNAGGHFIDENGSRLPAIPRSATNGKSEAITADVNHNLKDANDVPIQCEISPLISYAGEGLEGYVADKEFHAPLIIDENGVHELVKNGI
UniProt Q91ZJ5: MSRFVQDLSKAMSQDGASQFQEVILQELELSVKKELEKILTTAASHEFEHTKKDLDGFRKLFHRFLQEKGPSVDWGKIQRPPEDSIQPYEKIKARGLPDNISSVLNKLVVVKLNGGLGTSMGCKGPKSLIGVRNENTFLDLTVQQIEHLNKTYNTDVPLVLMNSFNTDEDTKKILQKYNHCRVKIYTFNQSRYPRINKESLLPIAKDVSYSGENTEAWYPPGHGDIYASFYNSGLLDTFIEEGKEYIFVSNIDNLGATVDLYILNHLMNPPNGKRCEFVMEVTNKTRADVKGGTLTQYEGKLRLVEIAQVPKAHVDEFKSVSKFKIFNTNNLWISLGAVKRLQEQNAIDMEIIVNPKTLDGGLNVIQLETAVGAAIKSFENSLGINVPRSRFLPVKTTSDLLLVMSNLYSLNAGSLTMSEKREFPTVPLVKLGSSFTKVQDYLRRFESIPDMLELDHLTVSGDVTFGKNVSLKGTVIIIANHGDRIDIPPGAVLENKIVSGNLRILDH
UniProt Q8VDT9: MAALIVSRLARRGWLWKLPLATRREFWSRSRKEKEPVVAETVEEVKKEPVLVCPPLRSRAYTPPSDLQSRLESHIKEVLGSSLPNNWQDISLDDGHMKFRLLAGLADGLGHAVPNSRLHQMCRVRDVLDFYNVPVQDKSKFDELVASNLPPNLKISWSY
UniProt Q922B2: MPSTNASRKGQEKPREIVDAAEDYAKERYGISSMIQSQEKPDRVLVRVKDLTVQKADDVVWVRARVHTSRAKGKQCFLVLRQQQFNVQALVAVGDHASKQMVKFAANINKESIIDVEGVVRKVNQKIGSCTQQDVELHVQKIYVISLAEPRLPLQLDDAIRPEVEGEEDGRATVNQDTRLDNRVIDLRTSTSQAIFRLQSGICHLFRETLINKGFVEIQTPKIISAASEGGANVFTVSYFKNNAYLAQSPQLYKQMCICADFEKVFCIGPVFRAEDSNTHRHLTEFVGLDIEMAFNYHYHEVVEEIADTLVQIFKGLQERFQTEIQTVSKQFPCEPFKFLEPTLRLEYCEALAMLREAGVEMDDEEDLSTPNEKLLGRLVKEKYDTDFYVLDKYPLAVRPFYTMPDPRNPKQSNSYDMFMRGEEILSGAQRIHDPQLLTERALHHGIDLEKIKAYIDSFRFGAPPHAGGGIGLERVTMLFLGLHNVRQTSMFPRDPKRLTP
UniProt Q91VU6, whole entry: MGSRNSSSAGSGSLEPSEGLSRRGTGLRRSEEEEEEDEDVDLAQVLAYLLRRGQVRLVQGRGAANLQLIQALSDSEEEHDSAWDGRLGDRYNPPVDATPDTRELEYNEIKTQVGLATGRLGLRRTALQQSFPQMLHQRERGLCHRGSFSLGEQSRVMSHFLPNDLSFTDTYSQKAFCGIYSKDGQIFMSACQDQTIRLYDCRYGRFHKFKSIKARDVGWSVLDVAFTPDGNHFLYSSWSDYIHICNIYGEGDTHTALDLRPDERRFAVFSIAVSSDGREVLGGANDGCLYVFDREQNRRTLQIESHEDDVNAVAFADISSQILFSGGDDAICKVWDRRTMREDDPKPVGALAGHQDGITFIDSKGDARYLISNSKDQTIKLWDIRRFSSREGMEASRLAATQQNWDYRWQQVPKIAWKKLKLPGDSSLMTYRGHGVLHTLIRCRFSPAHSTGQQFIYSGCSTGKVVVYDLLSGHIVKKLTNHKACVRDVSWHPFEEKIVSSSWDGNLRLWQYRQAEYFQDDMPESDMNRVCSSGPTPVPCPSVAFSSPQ
UniProt Q8VEH6: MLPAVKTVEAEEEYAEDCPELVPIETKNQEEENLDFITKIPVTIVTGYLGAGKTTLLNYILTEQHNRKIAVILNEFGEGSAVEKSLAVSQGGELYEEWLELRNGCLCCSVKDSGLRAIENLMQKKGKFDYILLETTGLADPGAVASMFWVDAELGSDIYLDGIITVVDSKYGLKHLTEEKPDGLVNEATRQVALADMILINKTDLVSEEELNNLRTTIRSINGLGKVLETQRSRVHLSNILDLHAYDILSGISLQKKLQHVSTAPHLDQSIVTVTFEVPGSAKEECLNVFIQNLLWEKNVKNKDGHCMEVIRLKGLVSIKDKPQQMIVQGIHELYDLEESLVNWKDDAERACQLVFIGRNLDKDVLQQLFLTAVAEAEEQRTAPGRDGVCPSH

Target | log2 fold change of pooled soluble protein
UniProt Q921H9 | 0.00456
UniProt Q91YI0 | 0.0279
UniProt Q91X44 | 0.0922
UniProt Q91VC9 | -0.0383
UniProt Q91W43 | 0.0257
UniProt Q925I1 | 0.0815
UniProt Q922U1 | -0.109
UniProt Q91YT2 | 0.0122
UniProt Q91VS8 | -0.361
UniProt Q91W67 | 0.0133
UniProt Q91W90 | 0.167
UniProt Q91VI7 | 0.024
UniProt Q91VR2 | -0.0543
UniProt Q91WK2 | -0.0174
UniProt Q91ZV0 | 0.0248
UniProt Q91WM6 | 0.032
UniProt Q91YE7 | -0.526
UniProt Q8VCN6 | 0.0379
UniProt Q8VI75 | -0.00788

Single entries from the entries so far.
In log2 fold change of pooled soluble protein, UniProt Q91VI7 has the entry 0.024
In log2 fold change of pooled soluble protein, UniProt Q91W90 has the entry 0.167

Next part.

Target | log2 fold change of pooled soluble protein
UniProt Q8VE09 | 0.278
UniProt Q91VE6 | -0.123
UniProt Q91YN5 | -0.00187
UniProt Q91WG0 | -0.0577
UniProt Q91Z58 | -0.00962
UniProt Q8VCQ3 | -0.00951
UniProt Q924L1 | -0.0114
UniProt Q91ZJ5 | 0.0134
UniProt Q8VDT9 | -0.128
UniProt Q921W0 | -0.184
UniProt Q8VDJ3 | -0.0571
UniProt Q8VDG7 | -0.0132
UniProt Q922B2 | -0.0517
UniProt Q8VD04 | -0.12
UniProt Q91VU6 | 0.000634
UniProt Q8VIJ6 | -0.0378
UniProt Q91WS0 | -0.229
UniProt Q8VEH6 | -0.275
